Results are given in words; binding and its absence hold for the method and conditions named. Some binding calls cover weakened binding; strength is not graded here. Tags and fused reporters may be left off the sequences shown.
Target: T1, EMBRYONIC FLOWER 2 (EMF2), yeast two-hybrid fusion (Arabidopsis thaliana) (UniProt Q8L6Y4)
T1 sequence: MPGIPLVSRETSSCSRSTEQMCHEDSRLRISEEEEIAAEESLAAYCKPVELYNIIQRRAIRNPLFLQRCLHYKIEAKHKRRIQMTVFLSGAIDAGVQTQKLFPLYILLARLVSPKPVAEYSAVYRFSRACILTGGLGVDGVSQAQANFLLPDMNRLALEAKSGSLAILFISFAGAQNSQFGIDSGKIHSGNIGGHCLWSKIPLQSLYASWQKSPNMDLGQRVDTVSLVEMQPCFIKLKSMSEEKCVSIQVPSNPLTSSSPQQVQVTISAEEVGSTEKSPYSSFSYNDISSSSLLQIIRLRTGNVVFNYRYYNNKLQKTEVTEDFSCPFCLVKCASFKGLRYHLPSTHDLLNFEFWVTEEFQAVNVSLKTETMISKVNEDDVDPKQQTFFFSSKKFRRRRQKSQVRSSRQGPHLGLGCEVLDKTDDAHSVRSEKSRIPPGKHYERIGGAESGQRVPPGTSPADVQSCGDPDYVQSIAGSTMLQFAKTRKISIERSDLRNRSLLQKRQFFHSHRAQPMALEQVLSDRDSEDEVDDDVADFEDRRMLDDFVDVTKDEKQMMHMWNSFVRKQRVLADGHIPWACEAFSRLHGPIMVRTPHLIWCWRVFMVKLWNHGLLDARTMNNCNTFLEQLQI
Experiment: two-hybrid; GAL4 yeast two-hybrid in S. cerevisiae AH109; growth on SD-L-W-H in serial dilutions, 3 to 4 days at 28 °C; empty bait and prey vectors as negative controls

binding: binds
B1: UBP5, yeast two-hybrid fusion (enzyme, UniProt O22207 1-924)
chain: MAEVSMGSSSSSTDLSPEEERVFIRDIAIAAEANSKEGDTFYLITQRWWQEWIEYVNQDQPCNTNDGSSLSEHCDSPGSSTLKKPSRIDNSDLIYDSSLEDPSNTSEIIETLQEGRDYVLLPQEVWNQLRSWYGGGPTLARRVISSGLSQTELAVEVYPLRLQLLLMPKSDHSAIRISKKETIRELHRRACEIFDLDSEHVRIWDYYGHQKYSLMNDLDKTLDDANLQMDQDILVEVLDINGTLSSAHIQSAQENGLVDGDSTSILIEPSKSSLAAAGGFSSSRNAFRTGSVEVSQSFDNTYSSTGVTTRGSTAGLTGLLNLGNTCFMNSAIQCLVHTPEFASYFQEDYHQEINWQNPLGMVGELALAFGDLLRKLWAPGRTPIAPRPFKAKLARFAPQFSGYNQHDSQELLAFLLDGLHEDLNRVKHKPYINSRDADGRPDEEVADEFWKNHIARNDSIIVDVCQGQYKSTLVCPICNKVSVTFDPFMYLSLPLQFNTTRAITVTVFSCDKTALPSTITVNVSKQGRCRDLIQALTNACSLKQSEELKLAEIRNNFIHRLFEDPLIPLSSIKDDDHLAAYKLSKSSENTTLLRLVLRRRDQKAGERESTVQLKPCGTPLLSSASCGDALTKGKIHCLVQNMLSPFRREESVGKKGNSDSSIPERRSARFNNTEEEDKVGGLKKAKKSNSSDLGASKLSLQLIDEDNKTINLPDNEAEAMKLPSSATVTIYLDWTPELSGMYDITCLESLPEVLKYGPTTKKARSEPLSLYACLEAFLREEPLVPDEMWFCPQCNERRQASKKLDLWRLPEVLVIHLKRFSYSRSMKHKLETFVNFPIHDLDLTKYVANKNLSQPQLYELYALTNHYGGMGSGHYTAHIKLLDDSRWYNFDDSHISHINEDDVKSGAAYVLFYRRKSDAGGKMT
